# In the supplement of paper PMC8728848:
# The other results are listed elsewhere or left out.
# B1: RbmA (Vibrio cholerae), A0A2H4NFB8 (protein)
# chain: MSNFKGSIMNKRHYYLASCLALLFSTASYAEVDCELQPVIEANLSLNQNQLASNGGYISSQLGIRNESCETVKFKYWLSIKGPEGIYFPAKAVVGVDTAQQESDALTDGRMLNVTRGFWVPEYMADGKYTVSLQVVAENGEVFKANQEFVKGGDLNSLPELNGLTIDIKNQFGINSVESTGGFVPFTIDLNNGREGEAKVEFWMTAVGPDGLIIPVHSREKWMIIAGNTFSKVRGINFDKSYPAGEYTINAQVVDIVSGERVEQLMTVVKK
# Molecular target: Neu5Gc(b2-6)Gal(b1-4)GlcNAc
# Experiment: glycan array binding signal (z-score within array); higher = stronger binding
# Conditions: glycan notation: IUPAC condensed, linker removed
# Summary of the method: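 Negative Z-scores can be read as non-binding. The Z-score is calculated within each array and then averaged across arrays of one protein sequence at different concentrations or buffers and across linkers. Arrays, 3228 in all, were curated from the Consortium for Functional Glycomics database and kept only where the protein sequence was available.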
binder,measurement,value
B1,glycan array binding signal (z-score),-0.615
